# Assay results as given in PubChem BioAssay AID1439 (NMMLSC, 2008).
# Amino acid sequences for entries named in this document (tags omitted).
# UniProt P09471, whole entry, looked up: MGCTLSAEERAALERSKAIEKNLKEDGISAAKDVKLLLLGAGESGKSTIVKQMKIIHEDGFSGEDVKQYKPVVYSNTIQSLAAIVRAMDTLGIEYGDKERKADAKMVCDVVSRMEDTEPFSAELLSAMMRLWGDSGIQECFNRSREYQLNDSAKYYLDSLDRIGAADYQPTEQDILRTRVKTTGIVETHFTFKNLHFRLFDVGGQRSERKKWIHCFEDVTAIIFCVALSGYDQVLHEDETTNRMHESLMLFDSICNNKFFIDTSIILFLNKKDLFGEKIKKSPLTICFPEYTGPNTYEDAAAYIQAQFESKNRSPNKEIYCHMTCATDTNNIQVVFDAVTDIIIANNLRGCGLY
# Among all 220,000 compounds or so, about 770 (0.35%) were called active. The shares of active, inactive and inconclusive entries below differ from those in the screen. No stated cut-off is given here; in the data, active means binding response below about 49% or above about 150%; inconclusive means no clear call, values can overlap the other calls; inactive means in between.
# Target: Guanine nucleotide-binding protein G(o) subunit alpha (Homo sapiens) (UniProt P09471)
# Test: RGS7-Galphao binding modulators, primary screen, biochemical, multiplexed bead flow cytometry (AID 1439);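 further: fluorescent Galphao held in activated GDP-AlF4 state binding bead-coupled RGS7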
# Conditions: at 10 µM, actives lie on both sides
row,SMILES,binding response (% of control)
1,O=C(Nc1cc([N+](=O)[O-])ccc1N1CCOCC1)c1ccco1,inconclusive: 100%
2,O=C1CCC(=O)N1CCSC(=S)N1CCSCC1,inconclusive: 86.7%
3,Cc1ccc(S(=O)(=O)Nc2ccc3ccccc3n2)cc1,inconclusive: 109%
4,CC(C(=O)NCC1CCCCC1)N(C)Cc1cccc(Cl)c1 (stereo unspecified),inconclusive: 72%
5,CCCCNC(=S)NNC(=O)c1nn(C)cc1Cl,inactive: 104%
6,COc1cccc(NC(=O)c2cc(-c3ccncc3)nc3c(C)cc(C)cc23)c1,inconclusive: 114%
7,Cc1nn(C)c(C(=O)Sc2cccc(Cl)c2)c1[N+](=O)[O-],inconclusive: 104%
8,COc1ccc(NC2=C3CC(C)CC=C3N(c3ccc(OC)cc3)C2=O)cc1 (stereo unspecified),inconclusive: 83.2%
9,COc1ccc(-n2c(=O)[nH]c3cc(C(=O)NCCc4ccc(Cl)cc4)ccc3c2=O)cc1OC,inconclusive: 102%
10,COc1cc(CC(=O)Nc2ccc(S(=O)(=O)NC3=NCCCCC3)cc2)cc(OC)c1OC,inconclusive: 107%
11,COc1ccc2[nH]cc(CCn3ccc(=O)c(C)c3C)c2c1,inactive: 95.8%
12,O=C(CSc1nnc(SCc2ccc(Cl)cc2)s1)N/N=C/c1ccccc1C(=O)O,inconclusive: 86.5%
13,Cc1cc(=O)oc2cc(OCc3nnc(-c4ccccc4Br)o3)ccc12,inactive: 104%
14,N/C(=N\OC(=O)CCn1cccc(C(F)(F)F)c1=O)c1ccc(OC(F)(F)F)cc1,inconclusive: 110%
15,COc1ccc(Cc2noc(COc3ccc(Cl)cc3)n2)cc1,inactive: 99.8%
16,Cn1ncc2c(Nc3ccccc3Cl)nc(Cl)nc21,inconclusive: 83.2%
17,COC(=O)c1noc(C)c1-c1ccnn1C(=O)c1ccc(Cl)cc1,inconclusive: 113%
18,CN1CCN(CCCN(Cc2ccco2)C(=S)Nc2ccc(Cl)cc2)CC1,inconclusive: 104%
19,CC(C)c1cc(C(=O)N2CCCC(CCC(=O)N3CCN(c4ccccn4)CC3)C2)no1 (stereo unspecified),inconclusive: -46.7%
20,COCCN1C(=O)c2ccccc2C(C(=O)NCCCN2CCCC2)C1c1c[nH]c2ccccc12 (stereo unspecified),active: 33.5%
21,C(=C\c1ccncc1)/c1ccccc1,inconclusive: 108%
22,COc1ccc(C(=O)c2coc3c2C(=O)C(=O)c2ccccc2-3)cc1,inconclusive: 213%
23,CCOC(=O)C(NC(C)=O)(Nc1cccc(F)c1)C(F)(F)F (stereo unspecified),inactive: 103%

# A stretch taken from the entries so far, as a working copy:
row,SMILES,binding response (% of control)
16,Cn1ncc2c(Nc3ccccc3Cl)nc(Cl)nc21,inconclusive: 83.2%
17,COC(=O)c1noc(C)c1-c1ccnn1C(=O)c1ccc(Cl)cc1,inconclusive: 113%
18,CN1CCN(CCCN(Cc2ccco2)C(=S)Nc2ccc(Cl)cc2)CC1,inconclusive: 104%
19,CC(C)c1cc(C(=O)N2CCCC(CCC(=O)N3CCN(c4ccccn4)CC3)C2)no1 (stereo unspecified),inconclusive: -46.7%

# Later entries

row,SMILES,binding response (% of control)
1,CCOC(=O)c1cc(-c2ccc(C#N)cc2)nc2c1c(C)nn2CCC#N,inactive: 104%
2,Cc1ccc2ncccc2c1NC(=S)NC(=O)c1ccccc1,inconclusive: 111%
3,CCOc1ccc(NC(=S)NNc2ccnc3cc(Cl)ccc23)cc1,inconclusive: 106%
4,O=S(=O)(NCCCN1CCOCC1)c1ccc(Cl)s1,inconclusive: 19.8%
5,O=C(Nc1c(C(=O)O)[nH]c2ccc(F)cc12)c1cccc(C(F)(F)F)c1,inconclusive: 81.8%
6,Cc1ccc(C(=O)Nc2ccc(S(=O)(=O)N3CCc4ccccc43)cc2)o1,inactive: 97.4%
7,CCOc1ccc2[nH]c3c(NCCc4ccc(OC)c(OC)c4)ncnc3c2c1,inconclusive: 78.7%
8,N#CCCN(C(=O)CSc1nc2nc(-c3cccs3)cc(C(F)(F)F)c2c(=O)[nH]1)c1ccccc1,inconclusive: 211%
9,c1ccc(Cn2ncc3c(Nc4ccccc4)ncnc32)cc1,inconclusive: 124%
10,Cc1cccc(/C=N/n2c(-c3ccco3)n[nH]c2=S)c1,inconclusive: 90.7%
11,O=C(Nc1cccc2ccccc12)c1cc2c(cc1Br)OCO2,inconclusive: 78.4%
12,CCC1=Nc2cc(C(=O)NCC3CCCO3)ccc2Sc2ccc(Cl)cc21 (stereo unspecified),inconclusive: 90.7%
13,CCOCCCn1c(=NC(C)=O)c(C#N)cc2c(=O)n3ccccc3nc21,inconclusive: 102%
14,NC(=O)c1ccc[n+](CCC[n+]2cccc(C(N)=O)c2)c1,inconclusive: 104%
15,COc1ccc(OC)c(C2=NOC(C(=O)Nc3ccccc3SC)C2)c1 (stereo unspecified),inactive: 98%
16,O=C1CC(=O)CC(c2ccccc2)C1,inactive: 96.1%
17,CCOC(=O)CCCCNC(=O)Nc1ccccc1,inconclusive: 108%
18,O=S(=O)(NCCC1CC1(Cl)Cl)c1ccc(Cl)cc1 (stereo unspecified),inconclusive: 111%
19,CN(C)C(CNC(C(=O)Nc1ccc([N+](=O)[O-])cc1Br)c1ccccc1)c1ccccc1 (stereo unspecified),inconclusive: 109%
20,Cc1cccc(C)c1-n1nnnc1C(C)(C)N1CCN(N=O)CC1,inconclusive: 88.6%
21,COc1ccc(C(=O)Nc2ccc(-c3ccc(NC(=O)c4ccc(OC)cc4)c(OC)c3)cc2OC)cc1,inactive: 102%
22,CN1CCN(/C=C(\C#N)S(=O)(=O)c2ccc(Cl)cc2)CC1,inconclusive: 148%
23,CN1C(=S)SC2CS(=O)(=O)CC21 (stereo unspecified),inconclusive: 87.4%
